Results are given in words; binding and its absence hold for the method and conditions named. Binding seen in cells or lysates may run through a third protein. Some entries that bind do so weakly or less than the wild type.

Amino acid sequences for entries named in this document (tags omitted). A change or cut given only in a name is not applied to a line headed by its entry. Chains listed by the source or under a name are the forms on record and can include a tag or linker.
UniProt P16389: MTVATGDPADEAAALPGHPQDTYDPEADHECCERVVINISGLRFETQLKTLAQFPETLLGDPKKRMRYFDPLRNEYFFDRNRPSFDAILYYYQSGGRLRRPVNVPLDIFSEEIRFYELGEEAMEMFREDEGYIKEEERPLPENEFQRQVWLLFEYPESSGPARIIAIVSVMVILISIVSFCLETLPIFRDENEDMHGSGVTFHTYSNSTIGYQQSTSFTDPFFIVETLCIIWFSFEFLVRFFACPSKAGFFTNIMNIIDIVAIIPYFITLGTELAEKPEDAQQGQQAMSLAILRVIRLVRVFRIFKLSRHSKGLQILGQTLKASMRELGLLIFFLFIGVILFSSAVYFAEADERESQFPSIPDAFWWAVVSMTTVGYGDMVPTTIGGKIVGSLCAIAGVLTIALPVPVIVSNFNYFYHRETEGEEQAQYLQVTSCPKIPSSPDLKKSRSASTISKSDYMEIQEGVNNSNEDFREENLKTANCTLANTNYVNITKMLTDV
UniProt Q09470: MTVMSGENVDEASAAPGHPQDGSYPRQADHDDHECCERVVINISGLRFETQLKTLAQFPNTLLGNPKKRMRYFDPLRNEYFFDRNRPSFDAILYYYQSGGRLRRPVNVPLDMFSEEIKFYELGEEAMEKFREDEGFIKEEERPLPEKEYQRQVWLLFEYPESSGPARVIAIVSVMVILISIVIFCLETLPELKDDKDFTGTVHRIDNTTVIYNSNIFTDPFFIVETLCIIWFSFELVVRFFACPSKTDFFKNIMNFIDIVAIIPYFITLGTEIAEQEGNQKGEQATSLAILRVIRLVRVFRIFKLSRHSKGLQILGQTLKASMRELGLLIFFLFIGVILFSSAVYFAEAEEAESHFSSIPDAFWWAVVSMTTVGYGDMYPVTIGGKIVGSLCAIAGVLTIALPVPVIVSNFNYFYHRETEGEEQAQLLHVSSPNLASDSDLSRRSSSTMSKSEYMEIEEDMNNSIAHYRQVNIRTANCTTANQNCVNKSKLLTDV
K-Kv1.1m, the K-Kv1.1 protein bearing mutation T226R (Q09470, form named): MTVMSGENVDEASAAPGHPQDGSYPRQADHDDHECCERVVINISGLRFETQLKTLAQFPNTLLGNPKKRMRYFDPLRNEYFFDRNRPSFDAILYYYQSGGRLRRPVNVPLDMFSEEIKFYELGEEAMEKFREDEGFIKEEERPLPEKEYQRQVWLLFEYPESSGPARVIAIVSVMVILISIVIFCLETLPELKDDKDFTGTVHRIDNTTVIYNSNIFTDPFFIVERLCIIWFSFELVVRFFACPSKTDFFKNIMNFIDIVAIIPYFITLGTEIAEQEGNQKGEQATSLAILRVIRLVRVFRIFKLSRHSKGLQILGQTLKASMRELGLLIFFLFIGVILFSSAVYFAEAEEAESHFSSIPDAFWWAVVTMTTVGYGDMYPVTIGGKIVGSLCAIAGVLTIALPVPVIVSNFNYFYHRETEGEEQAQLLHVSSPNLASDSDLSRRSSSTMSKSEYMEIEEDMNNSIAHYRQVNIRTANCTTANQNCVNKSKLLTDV

The results in this text go back to paper PMC12525039.

This experiment has as its target C-Kv1.2, human Kv1.2 alpha-subunit fused at the N-terminus with TagCFP and bearing S371T (human) (UniProt P16389). Briefly: FRET or BRET.

With “K-Kv1.1m, the K-Kv1.1 protein bearing mutation T226R (from UniProt Q09470 1-495)”, the binding result is given as “binds”.
